Experimental data as given in ChEMBL document CHEMBL4303122, “Identification of potential treatments for COVID-19 through artificial intelligence-enabled phenomic analysis of human cells infected with SARS-CoV-2” (2020).
The full ranking holds about 1,600 compounds; the median of “Hit score” is about 0.13, and the highest 2% start at about 0.46. The list shows a part of the results.

Test system: SARS-CoV-2
Assay: Antiviral activity against SARS-CoV-2 (USA-WA1/2020 strain) measured by imaging in HRCE cells at MOI 0.4 after 96 hrs (reported as hit score from 0-1 for on-disease vs off-disease activity: scores >0.6 considered hits)
Type: functional, Homo sapiens

Cl.[NH-]c1c[n+](N2CCOCC2)no1 was tested. Which Hit score did it give?
Its Hit score is 0.228.

For CN(C)[C@@H](CCOc1cccc2ccccc12)c1ccccc1 [DAPOXETINE], which Hit score is on record?
Its Hit score is 0.1691.

With CC[C@H](Nc1ncnc2[nH]cnc12)c1nc2cccc(F)c2c(=O)n1-c1ccccc1 [IDELALISIB] as the compound, how does the Hit score read?
Its Hit score is 0.4259.

Cc1nccn1CCC(C(N)=O)(c1ccccc1)c1ccccc1 [IMIDAFENACIN] was tested. Which Hit score did it give?
The Hit score was 0.008612.

How did the Hit score turn out when CN[C@@H]1CCc2[nH]c3ccc(C(N)=O)cc3c2C1 [FROVATRIPTAN] was run?
Its Hit score is 0.1063.

With CC(C)(C)CC(=O)OCC(=O)[C@@]1(O)CC[C@H]2[C@@H]3CCC4=CC(=O)C=C[C@]4(C)[C@H]3[C@@H](O)C[C@@]21C [PREDNISOLONE TEBUTATE] as the compound, how does the Hit score read?
Its Hit score is 0.1945.

COC1=CC(=O)C[C@@H](C)[C@]12Oc1c(Cl)c(OC)cc(OC)c1C2=O [GRISEOFULVIN] was tested. Which Hit score did it give?
The Hit score was 0.06768.

CCC(=O)NCC[C@@H]1CCc2ccc3c(c21)CCO3 [RAMELTEON] was tested. Which Hit score did it give?
The Hit score was 0.1348.

How did the Hit score turn out when COc1cc(O)c(C(=O)Nc2nc(C(=O)NCCN(C(C)C)C(C)C)cs2)cc1OC.Cl.O.O.O [ACOTIAMIDE HYDROCHLORIDE] was run?
The Hit score was 0.02159.

With C=CC[C@@H]1/C=C(\C)C[C@H](C)C[C@H](OC)[C@H]2O[C@@](O)(C(=O)C(=O)N3CCCC[C@H]3C(=O)O[C@H](/C(C)=C/[C@@H]3CC[C@@H](O)[C@H](OC)C3)[C@H](C)[C@@H](O)CC1=O)[C@H](C)C[C@@H]2OC [TACROLIMUS ANHYDROUS] as the compound, how does the Hit score read?
Its Hit score is 0.3285.

For OCC(O)CN1CCN(c2ccccc2)CC1 (centres undefined) [DROPROPIZINE], which Hit score is on record?
The Hit score was 0.145.

For Nc1nc(=O)c2c([nH]1)NC[C@H](CNc1ccc(C(=O)N[C@@H](CCC(=O)O)C(=O)O)cc1)N2C=O [LEVOLEUCOVORIN], which Hit score is on record?
The Hit score was 0.1157.

How did the Hit score turn out when CC[C@@H](C(=O)O)[C@@H]1O[C@@H]([C@@H](C)[C@H](O)[C@H](C)C(=O)[C@H](CC)[C@H]2O[C@]3(C=C[C@@H](O)[C@]4(CC[C@@](C)([C@H]5CC[C@](O)(CC)[C@H](C)O5)O4)O3)[C@H](C)C[C@@H]2C)[C@@H](C)C[C@@H]1C [NARASIN] was run?
The Hit score was -0.02006.

Cc1cc(O)c(C(=O)N[C@@H](C(=O)N[C@@H]2C(=O)N3C(C(=O)O)=C(CSc4nnnn4C)CS[C@H]23)c2ccc(O)cc2)cn1 [CEFPIRAMIDE] was tested. Which Hit score did it give?
The Hit score was 0.1367.

For Cc1c(NC(C)C)c(=O)n(-c2ccccc2)n1C [RAMIFENAZONE], which Hit score is on record?
Its Hit score is 0.01431.

With CCOC(=O)Nc1ccc(NCc2ccc(F)cc2)cc1N [EZOGABINE] as the compound, how does the Hit score read?
Its Hit score is 0.1746.

How did the Hit score turn out when NCCc1cc[nH]n1 [BETAZOLE] was run?
The Hit score was 0.1111.

With COc1ccc2c(O[C@@H]3C[C@H]4C(=O)N[C@]5(C(=O)NS(=O)(=O)C6CC6)C[C@H]5/C=C\CCCCN(C)C(=O)[C@@H]4C3)cc(-c3nc(C(C)C)cs3)nc2c1C as the compound, how does the Hit score read?
The Hit score was 0.1824.

NS(=O)(=O)Cc1noc2ccccc12 [ZONISAMIDE] was tested. Which Hit score did it give?
The Hit score was 0.02562.

CN(C)CCN(Cc1ccc(Cl)cc1)c1ccccn1 [CHLOROPYRAMINE] was tested. Which Hit score did it give?
The Hit score was 0.008614.

For CCCCCCCCCCOc1cc2c(O)c(C(=O)OCC)cnc2cc1OCC [DECOQUINATE], which Hit score is on record?
Its Hit score is 0.0589.

Cc1cc(C(C#N)c2ccc(Cl)cc2)c(Cl)cc1NC(=O)c1cc(I)cc(I)c1O (centres undefined) [CLOSANTEL] was tested. Which Hit score did it give?
The Hit score was 0.1396.

With CN1C(=O)C[C@@H](C(=O)N[C@@H](Cc2c[nH]cn2)C(=O)N2CCC[C@H]2C(N)=O)NC1=O [TALTIRELIN] as the compound, how does the Hit score read?
Its Hit score is 0.1273.

For CC(C[N+](C)(C)C)OC(N)=O (centres undefined) [BETHANECHOL], which Hit score is on record?
Its Hit score is 0.07337.

O=C(O)c1nn(Cc2ccc(Cl)cc2Cl)c2ccccc12 [LONIDAMINE] was tested. Which Hit score did it give?
The Hit score was 0.2694.

Which Hit score does the source give for Cc1cc2c(OCC(CNC(C)(C)C)OC(=O)c3ccccc3)cccc2[nH]1 (centres undefined) [BOPINDOLOL] here?
Its Hit score is 0.2339.

With Cc1ccc(Sc2ccccc2N2CCNCC2)c(C)c1 [VORTIOXETINE] as the compound, how does the Hit score read?
The Hit score was 0.1805.

Which Hit score does the source give for COc1ccc(CN(CCN(C)C)c2ncccn2)cc1 [THONZYLAMINE] here?
The Hit score was 0.09678.

For NCC(=O)CCC(=O)O [AMINOLEVULINIC ACID], which Hit score is on record?
The Hit score was 0.04501.

How did the Hit score turn out when Cl.O=C1c2cccc3c2[C@H](CCC3)CN1[C@@H]1CN2CCC1CC2 [PALONOSETRON HYDROCHLORIDE] was run?
The Hit score was 0.1883.

How did the Hit score turn out when O=C(CCCN1CCC(O)(c2ccc(Cl)cc2)CC1)c1ccc(F)cc1 [HALOPERIDOL] was run?
Its Hit score is 0.212.

With Cc1nc(C)c(C)nc1C.Cl [LIGUSTRAZINE HYDROCHLORIDE] as the compound, how does the Hit score read?
The Hit score was 0.08486.

Which Hit score does the source give for C[C@]12CC[C@@H]3c4ccc(O)cc4CC[C@H]3[C@@H]1CC[C@@H]2OC(=O)CCC1CCCC1 [ESTRADIOL CYPIONATE] here?
The Hit score was 0.1681.

For O=C(O)C[C@H](O)C[C@H](O)/C=C/c1c(C2CC2)nc2ccccc2c1-c1ccc(F)cc1 [PITAVASTATIN], which Hit score is on record?
Its Hit score is -0.1096.

With Cc1ccc(C)c(OCCCC(C)(C)C(=O)O)c1 [GEMFIBROZIL] as the compound, how does the Hit score read?
Its Hit score is 0.05216.

Which Hit score does the source give for O=C(O)c1ccc(NC(=O)[C@H](Cc2ccc(O)cc2)NC(=O)c2ccccc2)cc1 [BENTIROMIDE] here?
The Hit score was 0.2686.

Nc1ccncc1N [AMIFAMPRIDINE] was tested. Which Hit score did it give?
Its Hit score is 0.1603.

With COC(=O)[C@@H](N)Cc1ccc(O)c(O)c1 [MELEVODOPA] as the compound, how does the Hit score read?
The Hit score was 0.204.

With NCCS [CYSTEAMINE] as the compound, how does the Hit score read?
The Hit score was 0.253.

For COCCOC(=O)C1=C(C)NC(C)=C(C(=O)OC(C)C)C1c1cccc([N+](=O)[O-])c1 (centres undefined) [NIMODIPINE], which Hit score is on record?
Its Hit score is 0.09541.

For CN1C(C(=O)Nc2ccccn2)=C(O)c2ccccc2S1(=O)=O [PIROXICAM], which Hit score is on record?
Its Hit score is 0.07142.

How did the Hit score turn out when COc1c(C)c2c(c(O)c1C/C=C(\C)CCC(=O)OCCN1CCOCC1)C(=O)OC2 [MYCOPHENOLATE MOFETIL] was run?
The Hit score was 0.08086.

For O=C(O)c1ccc(-n2nc(-c3ccccc3O)nc2-c2ccccc2O)cc1 [DEFERASIROX], which Hit score is on record?
Its Hit score is 0.06618.

Which Hit score does the source give for NNC(=O)CN1C(=O)CN=C(c2ccccc2)c2cc(Br)ccc21 here?
The Hit score was 0.07373.
